Consider two substances from article PMC7655164.

Sequences of proteins named here, by UniProt entry; tags and fusion partners are left off. A change or cut given only in a name is not applied to a line headed by its entry.
UniProt Q92734: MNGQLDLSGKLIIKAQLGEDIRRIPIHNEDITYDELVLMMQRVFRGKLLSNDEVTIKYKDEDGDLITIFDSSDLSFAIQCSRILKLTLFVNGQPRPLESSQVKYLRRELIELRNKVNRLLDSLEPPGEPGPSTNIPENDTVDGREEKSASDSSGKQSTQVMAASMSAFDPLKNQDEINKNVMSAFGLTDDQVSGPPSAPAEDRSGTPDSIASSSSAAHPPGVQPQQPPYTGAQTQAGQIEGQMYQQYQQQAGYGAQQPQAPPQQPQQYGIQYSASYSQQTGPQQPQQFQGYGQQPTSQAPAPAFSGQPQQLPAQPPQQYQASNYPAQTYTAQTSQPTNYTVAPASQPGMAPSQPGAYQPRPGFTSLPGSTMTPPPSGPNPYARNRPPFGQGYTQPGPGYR
UniProt Q9BXW9: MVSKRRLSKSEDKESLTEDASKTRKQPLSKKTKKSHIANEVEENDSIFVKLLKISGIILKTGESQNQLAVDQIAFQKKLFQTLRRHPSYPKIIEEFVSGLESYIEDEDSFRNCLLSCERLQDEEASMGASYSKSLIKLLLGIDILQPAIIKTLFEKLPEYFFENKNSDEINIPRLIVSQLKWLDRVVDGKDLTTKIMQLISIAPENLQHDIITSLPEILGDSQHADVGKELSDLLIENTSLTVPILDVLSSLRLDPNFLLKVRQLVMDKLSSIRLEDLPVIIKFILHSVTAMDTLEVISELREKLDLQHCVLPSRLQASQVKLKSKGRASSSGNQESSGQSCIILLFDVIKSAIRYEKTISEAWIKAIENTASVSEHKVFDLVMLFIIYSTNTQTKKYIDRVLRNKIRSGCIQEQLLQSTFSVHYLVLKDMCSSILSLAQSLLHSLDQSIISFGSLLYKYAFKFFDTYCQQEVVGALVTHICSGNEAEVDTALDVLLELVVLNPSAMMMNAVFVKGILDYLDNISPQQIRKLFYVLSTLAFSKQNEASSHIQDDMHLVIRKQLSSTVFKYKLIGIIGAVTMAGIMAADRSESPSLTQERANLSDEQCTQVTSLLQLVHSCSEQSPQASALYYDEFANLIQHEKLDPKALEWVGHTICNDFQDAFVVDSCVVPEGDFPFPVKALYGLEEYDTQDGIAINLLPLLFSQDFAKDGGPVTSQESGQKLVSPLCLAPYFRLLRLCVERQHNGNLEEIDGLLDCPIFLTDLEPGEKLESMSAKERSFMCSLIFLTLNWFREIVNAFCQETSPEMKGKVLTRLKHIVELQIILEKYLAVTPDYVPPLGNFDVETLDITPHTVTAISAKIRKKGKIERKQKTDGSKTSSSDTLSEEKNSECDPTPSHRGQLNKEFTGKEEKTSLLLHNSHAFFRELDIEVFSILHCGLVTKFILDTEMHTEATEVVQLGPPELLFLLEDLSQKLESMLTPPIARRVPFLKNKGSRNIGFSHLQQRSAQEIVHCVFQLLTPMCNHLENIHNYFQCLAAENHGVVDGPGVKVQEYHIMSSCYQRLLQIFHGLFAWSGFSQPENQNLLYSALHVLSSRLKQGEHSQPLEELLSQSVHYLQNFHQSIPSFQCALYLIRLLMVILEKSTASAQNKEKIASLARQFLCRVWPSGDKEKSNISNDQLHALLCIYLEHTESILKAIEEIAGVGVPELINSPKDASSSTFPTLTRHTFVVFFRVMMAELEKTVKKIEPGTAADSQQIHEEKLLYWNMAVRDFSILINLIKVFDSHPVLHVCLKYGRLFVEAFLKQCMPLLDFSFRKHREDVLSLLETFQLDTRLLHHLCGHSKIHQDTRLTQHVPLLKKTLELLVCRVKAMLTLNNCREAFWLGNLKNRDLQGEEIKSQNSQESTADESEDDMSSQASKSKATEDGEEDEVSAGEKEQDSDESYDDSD

The target in this assay is TRK-Fused Gene (TFG) protein, endogenous in HEK293T cells (human (endogenous in HEK293T)) (UniProt Q92734). The assay can be described thus: co-IP; HEK293T cells transfected with GFP-tagged FANCD2 constructs; reverse IP and WB with antibodies to GFP or endogenous TFG (1% CHAPS lysis buffer).

Results are given in words; binding and its absence hold for the method and conditions named. Binding seen in cells or lysates may run through a third protein. Binding calls can cover weak binding; strength is not graded here.

For the substance “GFP-mtFANCD2-V2 K561R (from UniProt Q9BXW9)”, the binding result is recorded as “binds”.

In the case of “GFP-mtFANCD2-V2Δaa1437-1442 (from UniProt Q9BXW9)”, the binding result is recorded as “no binding”.
